Laboratory results: US9598720B2, “Monomeric and polymeric linkers useful for conjugating biological molecules and other substances” (DAKO Denmark A/S, priority 2005, dated 2017)

Assay: Fluorescence intensity of fluorescein linker derivatives and streptavidine conjugates in solution
Type: physicochemical
Conditions: for Intensity at 520 nm (arbitrary units): 100 nM total fluorescein in 150 mM carbonate pH 8, excited at 488 nm; for relative intensity for each flurescein: normalised to 100 nM free carboxy fluorescein, 150 mM carbonate pH 8, 488/520 nm; for total intensity for compound = relative intensity × number of fluresceins: normalised to free carboxy fluorescein

In the case of “Flu-L90-Lys(Flu)-L90-Lys(Flu)-L60-Lys(betaala)-Lys(betaala)-NH2 [Linker derivative 9]”, the “Intensity at 520 nm (arbitrary units)” value is reported as 517 arbitrary units, the “relative intensity for each flurescein” value is reported as 0.58 and the “total intensity for compound = relative intensity × number of fluresceins” value is reported as 1.75.
With “Flu-L120-Lys(Flu)-L120-Lys(Flu)-L120-Lys(Flu)120-Lys(betaala)-Lys(betaala)-NH2 [Linker derivative 11]” the “Intensity at 520 nm (arbitrary units)” value was 535 arbitrary units, the “relative intensity for each flurescein” value was 0.61 and the “total intensity for compound = relative intensity × number of fluresceins” value was 2.42.
For “carboxy fluorescein [reference compound]”, the “Intensity at 520 nm (arbitrary units)” value was 884 arbitrary units, the “relative intensity for each flurescein” value was 1.000 (reference) and the “total intensity for compound = relative intensity × number of fluresceins” value was 1.000 (refer.
